Literature values as cited in patent US6967218B2, “Pravastatin pharmaceutical formulations and methods of their use” (Biovail Laboratories, Inc., priority 2002, dated 2005).
At least one compound was matched to its structure with a doubt left.

Conditions: evening vs morning administration

## CC[C@H](C)C(=O)O[C@H]1C[C@H](O)C=C2C=C[C@H](C)[C@H](CC[C@@H](O)C[C@@H](O)CC(=O)O)[C@H]21 [pravastatin, Pravastatin]
  efficacy of evening dose versus morning dose: marginally more effective
